Reference: doi:10.1101/2025.11.23.690026
Read-outs that look alike come from different tables or passages of the source. No constants are given. Whether binding was seen depends on the method and setting. For some assays here: In cells and extracts the contact can be indirect. Some binding calls cover weakened binding; strength is not graded here. For some assays here: Tags and fused reporters may be left off the sequences shown.

Amino acid sequences for entries named in this document (tags omitted). Residues count along the entry.
UniProt P29469, whole entry: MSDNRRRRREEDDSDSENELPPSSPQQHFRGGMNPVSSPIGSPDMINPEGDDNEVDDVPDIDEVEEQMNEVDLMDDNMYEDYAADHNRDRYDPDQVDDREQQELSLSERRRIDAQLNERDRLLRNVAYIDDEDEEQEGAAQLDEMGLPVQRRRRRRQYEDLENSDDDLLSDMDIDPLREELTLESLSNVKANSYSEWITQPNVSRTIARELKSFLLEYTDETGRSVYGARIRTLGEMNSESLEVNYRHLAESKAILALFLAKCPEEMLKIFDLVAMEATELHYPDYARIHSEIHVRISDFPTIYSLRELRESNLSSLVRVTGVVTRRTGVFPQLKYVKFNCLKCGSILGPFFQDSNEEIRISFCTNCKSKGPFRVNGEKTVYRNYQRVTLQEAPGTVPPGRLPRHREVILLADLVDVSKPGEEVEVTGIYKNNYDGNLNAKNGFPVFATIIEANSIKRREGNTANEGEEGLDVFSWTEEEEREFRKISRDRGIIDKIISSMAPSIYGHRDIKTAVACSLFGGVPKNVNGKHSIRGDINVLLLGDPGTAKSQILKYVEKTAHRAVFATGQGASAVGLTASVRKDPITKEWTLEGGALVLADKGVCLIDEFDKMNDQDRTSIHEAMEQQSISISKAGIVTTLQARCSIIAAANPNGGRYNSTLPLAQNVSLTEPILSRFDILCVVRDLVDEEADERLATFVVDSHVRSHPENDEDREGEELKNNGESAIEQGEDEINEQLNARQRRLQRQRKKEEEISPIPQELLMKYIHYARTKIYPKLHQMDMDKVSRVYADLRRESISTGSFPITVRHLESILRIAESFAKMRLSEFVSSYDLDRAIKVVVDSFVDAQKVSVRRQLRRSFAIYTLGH
UniProt P29469, 791-867: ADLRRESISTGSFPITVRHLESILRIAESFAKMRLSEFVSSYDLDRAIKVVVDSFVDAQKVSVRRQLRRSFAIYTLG
UniProt P22082, whole entry: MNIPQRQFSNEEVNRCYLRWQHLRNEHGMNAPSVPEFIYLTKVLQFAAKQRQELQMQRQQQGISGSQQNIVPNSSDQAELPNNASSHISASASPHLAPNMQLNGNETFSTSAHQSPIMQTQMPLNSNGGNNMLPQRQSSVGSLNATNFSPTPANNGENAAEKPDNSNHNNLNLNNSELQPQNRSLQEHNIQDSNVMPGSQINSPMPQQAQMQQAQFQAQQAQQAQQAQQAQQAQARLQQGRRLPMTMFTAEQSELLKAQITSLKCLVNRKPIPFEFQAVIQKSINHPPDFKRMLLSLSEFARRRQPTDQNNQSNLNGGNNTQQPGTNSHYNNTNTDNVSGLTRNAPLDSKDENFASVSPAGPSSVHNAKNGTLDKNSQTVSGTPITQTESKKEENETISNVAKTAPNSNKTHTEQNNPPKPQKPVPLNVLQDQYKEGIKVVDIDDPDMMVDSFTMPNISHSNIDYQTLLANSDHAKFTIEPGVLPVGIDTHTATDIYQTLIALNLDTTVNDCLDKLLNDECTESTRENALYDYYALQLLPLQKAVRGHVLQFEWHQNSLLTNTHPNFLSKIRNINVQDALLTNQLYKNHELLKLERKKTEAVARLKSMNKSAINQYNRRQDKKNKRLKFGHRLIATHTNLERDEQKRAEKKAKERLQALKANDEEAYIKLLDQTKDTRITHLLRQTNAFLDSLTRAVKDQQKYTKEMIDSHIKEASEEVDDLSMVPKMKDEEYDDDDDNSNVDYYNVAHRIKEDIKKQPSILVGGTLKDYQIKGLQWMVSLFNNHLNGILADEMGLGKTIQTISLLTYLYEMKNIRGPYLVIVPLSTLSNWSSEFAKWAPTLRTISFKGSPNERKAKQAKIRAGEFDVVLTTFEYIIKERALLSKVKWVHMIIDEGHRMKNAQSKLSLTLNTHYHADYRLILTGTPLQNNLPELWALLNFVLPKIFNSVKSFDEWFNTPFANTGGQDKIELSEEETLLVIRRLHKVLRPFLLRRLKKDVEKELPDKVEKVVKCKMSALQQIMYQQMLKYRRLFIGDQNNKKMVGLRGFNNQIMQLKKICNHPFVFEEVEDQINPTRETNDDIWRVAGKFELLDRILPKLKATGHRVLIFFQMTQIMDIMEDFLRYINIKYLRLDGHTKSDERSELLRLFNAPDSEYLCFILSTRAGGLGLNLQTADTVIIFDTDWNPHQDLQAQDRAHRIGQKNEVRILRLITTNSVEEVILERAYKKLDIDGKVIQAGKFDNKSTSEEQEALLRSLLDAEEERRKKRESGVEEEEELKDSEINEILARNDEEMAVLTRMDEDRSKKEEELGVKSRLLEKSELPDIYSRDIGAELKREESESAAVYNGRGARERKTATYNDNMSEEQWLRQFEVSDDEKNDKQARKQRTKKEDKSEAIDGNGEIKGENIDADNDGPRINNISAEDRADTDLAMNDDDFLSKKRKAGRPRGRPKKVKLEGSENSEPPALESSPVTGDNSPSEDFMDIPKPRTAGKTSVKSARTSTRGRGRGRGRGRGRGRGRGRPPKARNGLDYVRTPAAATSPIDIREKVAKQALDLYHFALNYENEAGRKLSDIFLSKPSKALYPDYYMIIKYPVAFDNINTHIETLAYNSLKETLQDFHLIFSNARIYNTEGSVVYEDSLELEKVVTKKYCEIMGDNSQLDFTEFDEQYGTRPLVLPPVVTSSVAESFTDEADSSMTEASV

How the values were obtained:
GST-Spp1 (S. cerevisiae) = molecular target: T1, GST-Spp1 (S. cerevisiae) (UniProt Q03012); experiment: pull-down
T1 sequence: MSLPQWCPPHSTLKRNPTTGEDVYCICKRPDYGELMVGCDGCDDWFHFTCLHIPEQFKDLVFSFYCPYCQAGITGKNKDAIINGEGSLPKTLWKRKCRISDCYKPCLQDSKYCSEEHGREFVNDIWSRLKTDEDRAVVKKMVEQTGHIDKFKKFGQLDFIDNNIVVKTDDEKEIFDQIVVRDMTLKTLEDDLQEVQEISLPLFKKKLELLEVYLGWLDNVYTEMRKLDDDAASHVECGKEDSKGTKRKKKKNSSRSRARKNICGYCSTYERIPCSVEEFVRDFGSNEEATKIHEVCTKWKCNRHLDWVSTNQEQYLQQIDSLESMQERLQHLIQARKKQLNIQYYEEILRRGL

Spp1 (S. cerevisiae) [1] = molecular target: T2, Spp1 (S. cerevisiae) (UniProt Q03012); experiment: two-hybrid
T2 sequence: T1 sequence

Shg1 (S. cerevisiae) = molecular target: T3, Shg1 (S. cerevisiae) (UniProt P38337); experiment: two-hybrid
T3 sequence: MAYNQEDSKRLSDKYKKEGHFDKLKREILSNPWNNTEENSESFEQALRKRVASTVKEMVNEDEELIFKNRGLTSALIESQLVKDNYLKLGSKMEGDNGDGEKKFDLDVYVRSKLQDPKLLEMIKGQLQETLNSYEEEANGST

Spp1 (S. cerevisiae) [2] = molecular target: T2, Spp1 (S. cerevisiae); experiment: two-hybrid; remark: listed apart in the source
Sdc1 (S. cerevisiae) = molecular target: T4, Sdc1 (S. cerevisiae) (UniProt Q03323); experiment: two-hybrid
T4 sequence: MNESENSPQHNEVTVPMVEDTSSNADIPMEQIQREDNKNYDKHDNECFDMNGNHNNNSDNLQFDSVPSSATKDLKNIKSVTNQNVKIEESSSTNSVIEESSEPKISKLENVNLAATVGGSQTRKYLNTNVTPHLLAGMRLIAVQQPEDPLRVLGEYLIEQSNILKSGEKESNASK

[3] = molecular target: T5, Prp22-AID-6FLAG (S. cerevisiae) (UniProt P24384); experiment: co-IP
T5 sequence: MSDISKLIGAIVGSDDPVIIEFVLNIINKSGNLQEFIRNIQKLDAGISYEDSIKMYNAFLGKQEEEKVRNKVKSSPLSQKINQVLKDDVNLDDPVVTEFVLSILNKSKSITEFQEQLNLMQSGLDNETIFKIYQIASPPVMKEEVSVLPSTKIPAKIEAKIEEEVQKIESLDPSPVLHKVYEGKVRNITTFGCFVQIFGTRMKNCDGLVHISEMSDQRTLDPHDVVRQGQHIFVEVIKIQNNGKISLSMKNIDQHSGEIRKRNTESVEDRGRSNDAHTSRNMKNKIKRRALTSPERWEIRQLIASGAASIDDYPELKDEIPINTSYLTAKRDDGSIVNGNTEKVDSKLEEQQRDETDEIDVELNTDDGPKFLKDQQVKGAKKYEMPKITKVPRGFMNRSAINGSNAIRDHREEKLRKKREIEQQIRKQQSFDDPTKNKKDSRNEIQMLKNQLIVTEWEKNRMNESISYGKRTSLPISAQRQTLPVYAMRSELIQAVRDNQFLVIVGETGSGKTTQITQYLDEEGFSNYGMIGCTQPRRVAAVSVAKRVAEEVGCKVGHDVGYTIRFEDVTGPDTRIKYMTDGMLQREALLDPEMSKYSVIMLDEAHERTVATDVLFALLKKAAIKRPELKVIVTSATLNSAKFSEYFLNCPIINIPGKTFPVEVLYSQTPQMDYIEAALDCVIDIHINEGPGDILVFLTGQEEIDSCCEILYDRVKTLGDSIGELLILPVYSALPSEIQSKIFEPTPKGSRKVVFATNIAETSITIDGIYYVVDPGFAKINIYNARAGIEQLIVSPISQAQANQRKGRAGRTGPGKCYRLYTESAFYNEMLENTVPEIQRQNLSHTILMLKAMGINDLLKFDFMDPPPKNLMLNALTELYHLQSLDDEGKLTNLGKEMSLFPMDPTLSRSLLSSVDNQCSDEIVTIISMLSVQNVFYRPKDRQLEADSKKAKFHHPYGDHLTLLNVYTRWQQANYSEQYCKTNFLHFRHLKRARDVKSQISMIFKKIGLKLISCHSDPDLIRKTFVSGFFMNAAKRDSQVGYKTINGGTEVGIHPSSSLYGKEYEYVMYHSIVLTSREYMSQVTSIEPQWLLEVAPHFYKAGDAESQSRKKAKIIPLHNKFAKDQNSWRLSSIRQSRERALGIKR

GST-Mcm2 (S. cerevisiae) = GST-Mcm2 (S. cerevisiae) (UniProt P29469); experiment: pull-down
GST-Shg1 (S. cerevisiae) = molecular target: T6, GST-Shg1 (S. cerevisiae) (UniProt P38337); experiment: pull-down
T6 sequence: T3 sequence

GST-Sdc1 (S. cerevisiae) = molecular target: T7, GST-Sdc1 (S. cerevisiae) (UniProt Q03323); experiment: pull-down
T7 sequence: T4 sequence

Snf2-Myc (S. cerevisiae) = Snf2-Myc (S. cerevisiae) (UniProt P22082); experiment: co-IP

“Mcm2 (soluble partner of the GST-Spp1 pull-down) (from UniProt P29469 1-868)” was tested. Which binding (GST-Spp1 (S. cerevisiae)) did it give?
Its binding is “binds weakly”.

“Mcm2 (791-867) (from UniProt P29469 791-867) (domain or fragment)” was tested. Which binding (Spp1 (S. cerevisiae) [1]) did it give?
The binding was “binds”.

With VCSSNASDLDMSLLSTPSSLFQMAGETKSNPIIIPDSQDDSILSSDPF (domain or fragment, UniProt P53939 360-407) [C-terminus of Nis1 (360-407)] as the molecule, how does the binding (Shg1 (S. cerevisiae)) read?
The binding was “binds”.

What about the binding (Spp1 (S. cerevisiae) [2]) of the same molecule?
Its binding is “binds”.

What about the binding (Sdc1 (S. cerevisiae)) of the same molecule?
Its binding is “binds”.

B1: Myc-Set1 (protein, UniProt P38827 1-1080)
chain: MSNYYRRAHASSGSYRQPQEQPQYSRSGHYQYSNGHSHQQYSSQYNQRRRYNHNDGTRRRYNDDRPHSSNNASTRQYYATNNSQSGPYVNKKSDISSRRGMSQSRYSNSNVHNTLASSSGSLPTESALLLQQRPPSVLRYNTDNLKSKFHYFDPIKGEFFNKDKMLSWKATDKEFSETGYYVVKELQDGQFKFKIKHRHPEIKASDPRNENGIMTSGKVATHRKCRNSLILLPRISYDRYSLGPPPSCEIVVYPAQDSTTTNIQDISIKNYFKKYGEISHFEAFNDPNSALPLHVYLIKYASSDGKINDAAKAAFSAVRKHESSGCFIMGFKFEVILNKHSILNNIISKFVEINVKKLQKLQENLKKAKEKEAENEKAKELQGKDITLPKEPKVDTLSHSSGSEKRIPYDLLGVVNNRPVLHVSKIFVAKHRFCVEDFKYKLRGYRCAKFIDHPTGIYIIFNDIAHAQTCSNAESGNLTIMSRSRRIPILIKFHLILPRFQNRTRFNKSSSSSNSTNVPIKYESKEEFIEATAKQILKDLEKTLHVDIKKRLIGPTVFDALDHANFPELLAKRELKEKEKRQQIASKIAEDELKRKEEAKRDFDLFGLYGGYAKSNKRNLKRHNSLALDHTSLKRKKLSNGIKPMAHLLNEETDSKETTPLNDEGITRVSKEHDEEDENMTSSSSEEEEEEAPDKKFKSESEPTTPESDHLHGIKPLVPDQNGSSDVLDASSMYKPTATEIPEPVYPPEEYDLKYSQTLSSMDLQNAIKDEEDMLILKQLLSTYTPTVTPETSAALEYKIWQSRRKVLEEEKASDWQIELNGTLFDSELQPGSSFKAEGFRKIADKLKINYLPHRRRVHQPLNTVNIHNERNEYTPELCQREESSNKEPSDSVPQEVSSSRDNRASNRRFQQDIEAQKAAIGTESELLSLNQLNKRKKPVMFARSAIHNWGLYALDSIAAKEMIIEYVGERIRQPVAEMREKRYLKNGIGSSYLFRVDENTVIDATKKGGIARFINHCCDPNCTAKIIKVGGRRRIVIYALRDIAASEELTYDYKFEREKDDEERLPCLCGAPNCKGFLN
For B1, which binding [3] is on record?
Its binding is “binds”.

B2: Spp1 (soluble partner of the GST-Mcm2 pull-down) (protein, UniProt Q03012 1-353)
chain: T1 sequence
For B2, which binding (GST-Mcm2 (S. cerevisiae)) is on record?
Its binding is “binds weakly”.

B3: in vitro translated Nis1 (protein, UniProt P53939 1-407)
chain: METYETSIGTQSYPPTLFPPPLGTGGFTTSGYIHALVDSTSNSNSNSNTNSNTNSNTNSNSDTKIPIVQISDDSHITHDSFKPYMEYHDASHLRNRNISKADQVESTEVMEQFTQWSNYKMRSRSPTINAKPIRHTSQRRTDFTSKNELSKFSKNHNFIFHKGFLKRQHSIRREDRQAKVRSRFRSKKELTSVLNYIELEQMDIANVLASQPVNLHAIRNLTSRDPAVTPIPFLRSQMYATSSRPPYLRNRSISRKLPKSQPGSLPTTMPATATKTIKQNSTTPTTRSVYNKNVGRSNTSPSVLYHPKRRGKLNTKSHARKEQLLLELWREYLMLVITQRTQLRLTLLCSPGSASNESSVCSSNASDLDMSLLSTPSSLFQMAGETKSNPIIIPDSQDDSILSSDPF
How did the binding (GST-Shg1 (S. cerevisiae)) turn out when B3 was run?
The binding was “no binding”.

And the binding (GST-Sdc1 (S. cerevisiae))?
Its binding is “binds”.

And the binding (GST-Spp1 (S. cerevisiae))?
Its binding is “binds”.

B4: Set1 (endogenous) (protein, UniProt P38827 1-1080)
chain: B1 chain
With B4 as the molecule, how does the binding (Snf2-Myc (S. cerevisiae)) read?
The binding was “binds”.
